Assay results as given in the supplement of paper PMC12462457.
Where a name gives a salt, the structure may show the parent alone. ± gives the standard deviation of the averaged measurements. Some of the results follow. Single values are uncertain here, since repeats match poorly.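 Imaging of DAPI-stained nuclei was used to count cells; those without phalloidin-stained cytoplasm were treated as dead and excluded. Every well's count was divided by the median of same-plate vehicle wells, then averaged across two replicate plates.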

Tested on: OVCAR8
Assay: cell count relative to DMSO vehicle (fold change); higher = more surviving senescent cells (less killing)
Conditions: senescence inducer: cisplatin 10 µM 48 h, then 6 d recovery (CP senescent), exposure time 24 h

SMILES | cell count (compound dose 1 µM) | cell count (compound dose 5 µM)
Oc1ccc2c(c1)OC[C@]1(O)Cc3cc(O)c(O)cc3[C@H]21 [Brazilin] | 0.84 ± 0.073 | 0.627 ± 0.14
C=C(C)[C@@H]1CC[C@]2(C(=O)O)CC[C@]3(C)[C@H](CC[C@@H]4[C@@]5(C)CC[C@H](O)C(C)(C)[C@@H]5CC[C@]43C)[C@@H]12 [Betulinic acid] | 1.21 ± 0.03 | 1.12 ± 0.095
Nc1nc(F)nc2c1ncn2[C@@H]1O[C@H](COP(=O)(O)O)[C@@H](O)[C@@H]1O [Fludarabine (phosphate)] | 1.39 ± 0.23 | 1.24 ± 0.27
O=C(NOCC1CC1)c1ccc(F)c(F)c1Nc1ccc(I)cc1Cl | 1.2 ± 0.086 | 0.615 ± 0.053
COc1cc(O)c2c(=O)cc(-c3ccc(OC)c(-c4c(O)cc(O)c5c(=O)cc(-c6ccc(O)cc6)oc45)c3)oc2c1 [Ginkgetin] | 0.775 ± 0.043 | 0.773 ± 0.083
CC1(C)CCC(c2ccc(Cl)cc2)=C(CN2CCN(c3ccc(C(=O)NS(=O)(=O)c4ccc(N[C@H](CCN5CCOCC5)CSc5ccccc5)c(S(=O)(=O)C(F)(F)F)c4)cc3)CC2)C1 [Navitoclax] | 0.173 ± 0.0042 | 0.0375 ± 0.013
CC(C)C[C@H](NC(=O)[C@H](Cc1ccccc1)NC(=O)c1cnccn1)B(O)O [Bortezomib] | 0.425 ± 0.0028 | 0.125 ± 0.011
COc1ccc(-c2coc3cc(O)ccc3c2=O)cc1 | 0.842 ± 0.0028 | 0.656 ± 0.086
COc1ncc(-c2nc3c(n2C(C)C)[C@H](c2ccc(Cl)cc2)N(c2cc(Cl)cn(C)c2=O)C3=O)c(OC)n1 [Siremadlin] | 0.838 ± 0.019 | 0.588 ± 0.25
CCCCc1ccc(NC(C)=O)c(C)c1 | 0.989 ± 0.22 | 0.976 ± 0.034
O=C1NC(=O)/C(=C\c2cccc(C(F)(F)F)c2)S1 | 1.02 ± 0.29 | 0.904 ± 0.076
O=C1/C(=C/c2cccs2)CC/C1=C\c1cccs1 | 1.14 ± 0.046 | 0.885 ± 0.21
CCCSc1ccc2[nH]c(NC(=O)OC)nc2c1 | 0.938 ± 0.18 | 0.8205 ± 0.005
CCc1ccc(CCOc2ccc(CC3SC(=O)NC3=O)cc2)nc1 (stereo not given) | 1.09 ± 0.12 | 0.996 ± 0.31
O=C(CCCCCCC(=O)Nc1cccnc1)NO [Pyroxamide] | 0.909 ± 0.023 | 0.562 ± 0.14
CN(C)c1nc2c(Br)c(Br)c(Br)c(Br)c2n1CC(=O)O | 1.24 ± 0.17 | 1.19 ± 0.35
CCC(C)(C)C(=O)C(=O)N1CCCC[C@H]1C(=O)O[C@H](CCc1ccc(OC)c(OC)c1)c1cccc(NC(=O)CCC(=O)O)c1 [SLF-amido-C2-COOH] | 0.857 ± 0.033 | 0.628 ± 0.04
O=C(O)CCc1nc(-c2ccccc2)c(-c2ccccc2)o1 | 1.22 ± 0.15 | 1.25 ± 0.18
CN(CCCCCCNc1ccnc2cc(Cl)ccc12)CCCCCCNc1ccnc2cc(Cl)ccc12 | 1.04 ± 0.19 | 0.017 ± 0.0014
COc1ccc([C@@H]2CC(=O)c3c(O)cc(O)cc3O2)cc1O [Hesperetin] | 1.17 ± 0.35 | 1.16 ± 0.44
O=c1cc(-c2ccccc2)oc2c(O)c(O)ccc12 | 1.07 ± 0.2 | 1.27 ± 0.16
COc1cc(C(=O)OCCCCN=C(N)N)cc(OC)c1O[C@@H]1O[C@H](C(=O)O)[C@@H](O)[C@H](O)[C@H]1O | 1.08 ± 0.076 | 1.25 ± 0.12
Cc1c(C(=O)Nc2ccc(Oc3ccnc4[nH]cc(-c5ccccc5)c34)c(F)c2)c(=O)n(-c2ccc(F)cc2)n1C | 0.862 ± 0.15 | 1.04 ± 0.03

SMILES | cell count (compound dose 1 µM) | cell count (compound dose 5 µM)
CN[C@@H](C)C(=O)N[C@H](C(=O)N1CCC[C@H]1c1nc(C(=O)c2ccc(F)cc2)cs1)C1CCCCC1 | 0.355 ± 0.084 | 0.248 ± 0.024
C=Cc1cc(O)cc2nc(-c3ccc(O)c(F)c3)oc12 [Prinaberel] | 1.06 ± 0.19 | 1.08 ± 0.012
COc1ccc(-c2ccc3c(N4CCOC[C@@H]4C)nc(N4CCOC[C@@H]4C)nc3n2)cc1CO | 0.727 ± 0.033 | 0.428 ± 0.033
CN1CCN(C(=O)/C=C/c2ccc([N+](=O)[O-])o2)CC1 | 0.887 ± 0.022 | 0.838 ± 0.019
CC(=O)Nc1ccc(C(=O)Nc2ccccc2N)cc1 [Tacedinaline (CI994)] | 0.875 ± 0.013 | 0.794 ± 0.081
COc1cc2c(Nc3ccc(NC(=O)c4ccccc4)cc3)ncnc2cc1OCCCN1CCOCC1 | 1.11 ± 0.12 | 1.2 ± 0.11
O=S(=O)(c1ccc2c(c1)C(=NO)c1cc(S(=O)(=O)N3CCCCC3)ccc1-2)N1CCCCC1 | 0.124 ± 0.064 | 0.185 ± 0.052
CNC(=O)COc1cc2cc(Nc3nc(N4C[C@H](C)C[C@H](C)C4)ncc3Cl)ccc2n(C)c1=O | 0.854 ± 0.03 | 0.647 ± 0.3
CC1(C)CC[C@]2(C(=O)O)CC[C@]3(C)C(=CC[C@@H]4[C@@]5(C)CC[C@H](O[C@@H]6O[C@H](C(=O)O)[C@@H](O)[C@H](O[C@@H]7OC[C@@H](O)[C@H](O)[C@H]7O)[C@H]6O)C(C)(C)[C@@H]5CC[C@]43C)[C@@H]2C1 [Momordin Ic] | 0.988 ± 0.043 | 0.908 ± 0.26
OCCN1CCN(CC/C=C2/c3ccccc3Sc3ccc(C(F)(F)F)cc32)CC1 [Flupentixol dihydrochloride] | 1.11 | 1.211 ± 0.0071
CC(=O)Nc1cccc(-n2c(=O)n(C3CC3)c(=O)c3c(Nc4ccc(I)cc4F)n(C)c(=O)c(C)c32)c1 | 1.07 ± 0.082 | 0.809 ± 0.033
CC(C)c1c(C(=O)Nc2ccccc2)c(-c2ccccc2)c(-c2ccc(F)cc2)n1CC[C@@H](O)C[C@@H](O)CC(=O)O [Atorvastatin (hemicalcium salt)] | 1.01 ± 0.016 | 0.733 ± 0.017
Cc1ncc(C[n+]2csc(CCO)c2C)c(N)n1 | 1.24 ± 0.36 | 0.54 ± 0.28
CC(C)(C)c1cnc(CSc2cnc(NC(=O)C3CCNCC3)s2)o1 | 1.315 ± 0.0092 | 0.868 ± 0.059
COc1ccc(-c2cc(=O)c3c(O)c(OC)c(OC)cc3o2)cc1O [Eupatorin] | 1.03 ± 0.07 | 0.703 ± 0.33
CC(=Cc1ccc(C(=O)O)cc1)c1ccc2c(c1)C(C)(C)CCC2(C)C | 1.13 ± 0.031 | 0.834 ± 0.19
COC(=O)Nc1nc2cc(C(=O)c3cccs3)ccc2[nH]1 [Nocodazole] | 0.853 ± 0.21 | 0.755 ± 0.047
COc1cc(-c2ccc(=O)[nH]n2)ccc1OC(F)F [Zardaverine] | 0.962 ± 0.13 | 0.729 ± 0.0092
Cc1ccc([N+](=O)[O-])cc1S(=O)(=O)N(C)/N=C/c1cnc2ccc(Br)cn12 [PIK-75 (hydrochloride)] | 0.815 ± 0.081 | 0.521 ± 0.23
CCCCCCCc1ccc(CCc2cccc(O)c2C(=O)O)cc1 | 0.777 ± 0.047 | 0.917 ± 0.082
CC(C)(C)S(=O)(=O)c1ccc2nccc(Nc3n[nH]c4ccc(F)cc34)c2c1 | 0.756 ± 0.028 | 0.812 ± 0.05
COc1cc(OC)c(/C=C/S(=O)(=O)Cc2ccc(OC)c(NCC(=O)O)c2)c(OC)c1 [Rigosertib (sodium)] | 0.536 ± 0.018 | 0.572 ± 0.067

An excerpt of these results, comma-delimited.
SMILES,cell count (compound dose 1 µM),cell count (compound dose 5 µM)
COC(=O)Nc1nc2cc(C(=O)c3cccs3)ccc2[nH]1 [Nocodazole],0.853 ± 0.21,0.755 ± 0.047
COc1cc(-c2ccc(=O)[nH]n2)ccc1OC(F)F [Zardaverine],0.962 ± 0.13,0.729 ± 0.0092
